Article doi:10.1101/2024.09.03.610971
No constants are given. Whether binding was seen depends on the method and setting. Some entries that bind do so weakly or less than the wild type. Sequences can lack the tags named with a protein.

Target: T1, mouse CDC45, yeast two-hybrid fusion (mouse) (UniProt Q9Z1X9)
T1 sequence: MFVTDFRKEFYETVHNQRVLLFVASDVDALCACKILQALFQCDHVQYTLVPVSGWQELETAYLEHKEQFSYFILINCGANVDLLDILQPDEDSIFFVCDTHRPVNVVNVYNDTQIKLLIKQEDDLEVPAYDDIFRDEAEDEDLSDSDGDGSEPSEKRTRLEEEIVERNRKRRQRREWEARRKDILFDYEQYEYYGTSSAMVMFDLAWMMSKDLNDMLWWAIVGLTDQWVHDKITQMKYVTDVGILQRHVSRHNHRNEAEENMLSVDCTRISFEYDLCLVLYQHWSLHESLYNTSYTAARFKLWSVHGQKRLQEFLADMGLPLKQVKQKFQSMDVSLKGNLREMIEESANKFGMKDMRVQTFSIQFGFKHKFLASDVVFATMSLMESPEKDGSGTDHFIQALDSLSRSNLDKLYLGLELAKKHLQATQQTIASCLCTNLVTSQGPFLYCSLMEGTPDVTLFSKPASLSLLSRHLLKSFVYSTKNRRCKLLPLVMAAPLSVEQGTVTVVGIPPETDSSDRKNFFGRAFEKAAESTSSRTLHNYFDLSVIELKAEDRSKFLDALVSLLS
Assay: two-hybrid

B1: USP37 1-119 (USP37-PH domain), yeast two-hybrid fusion (domain or fragment, UniProt Q8C0R0 1-119)
chain: MSPLKIYGPIRIRSMQTGITKWKEGSFEIVEKDNRVSLLVHYNTGGIPRVFQLSHNIKNVVLRPSGIKQSRLMLTLQDNSFLSIDKVPSKDAEEMRLFLDAVHQNRLHAAMKASQGSGS
For B1, the binding was “binds”.
